Source: PubChem BioAssay AID1053133 (Broad Institute, 2014)
This is one part of the list.

Test: blocks a specific stage of Vaccinia orthopoxvirus infection, primary screen, cell-based, single point (AID 1053133)
Conditions: Vaccinia-infected cells, mCherry/Venus stage reporter fluorescence; measured here: Venus reporter, other viral stage; stronger effect = lower value; concentration not given here
For `COc1ccc(CN2/C(=N\P(=O)(Oc3ccccc3)Oc3ccccc3)Cc3ccccc3C2C2CC2)cc1` (stereo unspecified), the activity change (Venus) was -0.665%.
